PubChem BioAssay AID1259254 | NCATS – 2017
The deposit covers about 59,000 reagents; shown is a random part of them. In the full data, about 1,550 (2.6%) got an active call. 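G2 share is only a proxy for re-replication; each gene was hit by three separate siRNAs, and active genes were retested.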 The raw values are shown without normalisation. Entries without a mark were called inactive. Reagents against one gene are numbered here. Reagent sequences are not shown. The record does not give: the amount of reagent.

Assay: 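Genome-wide screen for genes that prevent DNA re-replication in cancer cells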 (primary screen)
System: human HCT116 colorectal cancer cells
Reagents: single siRNA against human genes
Duration: 3 days
Read-out: 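Nuclei stained with Hoechst and imaged; cell-cycle phase assigned by DNA content; G2 share scaled per plate, non-targeting siRNA 0%, GMNN siRNA 100%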
Reading the numbers: G2 robust z-score and G2 cells, % of GMNN control: higher = more G2 cells, more excess DNA replication; raw share of cells in G2: higher = larger share of cells with G2 DNA content
Hit rule: 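Active siRNAs have a G2 robust z of 5 or more median absolute deviations over the median, which in these data means about 38% or higher of GMNN control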

no.	Target gene	reagent	G2 robust z-score	G2 cells, % of GMNN control	raw share of cells in G2 (%)
1	TCEAL3	1	0.146	3.99	4.25
2	TCEAL3	2	-0.249	1.22	3.31
3	TCEAL3	3	-0.0545	2.58	5.18
4	CARINH	1	-0.562	-0.99	3.24
5	CARINH	2	2.87	23.2	12.2
6	CARINH	3	0.22	4.52	4.66
7	C1QL4	1	3.19	25.4	12.7
8	C1QL4	2	-0.419	0.0183	3.27
9	C1QL4	3	0.585	7.09	7.04
10	BAK1	1	0.12	3.81	6.02
11	BAK1	2	0.451	6.14	7.26
12	BAK1	3	-1.03	-4.29	2.39
13	RGS5	1	-1.03	-4.26	3.18
14	RGS5	2	2.52	20.7	12.5
15	RGS5	3	0.57	6.98	7.71
16	TREM1	1	-0.145	1.94	4.55
17	TREM1	2	6.04 (active)	45.4	26.6
18	TREM1	3	-0.678	-1.8	3.58
19	URI1	1	-1.34	-6.48	2.26
20	URI1	2	-0.378	0.311	4.02
21	URI1	3	-0.22	1.42	3.85
22	FLOT2	1	0.431	6	5.84
23	FLOT2	2	0.613	7.28	8.26
24	FLOT2	3	2.44	20.2	10.4
25	ADGRE5	1	0.287	4.99	7.62
26	ADGRE5	2	0.58	7.05	6.98
27	ADGRE5	3	-0.61	-1.33	2.86
28	RNF207	1	-0.72	-2.1	3.05
29	RNF207	2	-0.175	1.74	4.16
30	RNF207	3	-0.863	-3.1	3.3
31	MOB4	1	2.77	22.4	16.3
32	MOB4	2	3.71	29	13.8
33	MOB4	3	0.726	8.08	6.63
34	BAG1	1	1.18	11.3	10.6
35	BAG1	2	11.6 (active)	84.5	35.1
36	BAG1	3	-0.76	-2.38	2.59
37	SMCHD1	1	-0.491	-0.484	4.23
38	SMCHD1	2	0.29	5.01	6.11
39	SMCHD1	3	-0.978	-3.91	1.93
40	DTX2	1	-0.745	-2.27	2.73
41	DTX2	2	0.405	5.82	5.19
42	DTX2	3	-0.642	-1.55	2.56
43	ZNF34	1	0.074	3.49	4.02
44	ZNF34	2	3.32	26.3	17.8
45	ZNF34	3	-1.1	-4.77	2.14
46	RPS6KC1	1	-1.13	-4.99	4.04
47	RPS6KC1	2	-1.16	-5.16	3.31
48	RPS6KC1	3	0.0854	3.57	4.82
49	S100A8	1	-0.229	1.36	4
50	S100A8	2	0.424	5.95	7.63
51	S100A8	3	3.1	24.8	12.1

The list goes on, starting with the last 9 of the part before.
no.	Target gene	reagent	G2 robust z-score	G2 cells, % of GMNN control	raw share of cells in G2 (%)
43	ZNF34	1	0.074	3.49	4.02
44	ZNF34	2	3.32	26.3	17.8
45	ZNF34	3	-1.1	-4.77	2.14
46	RPS6KC1	1	-1.13	-4.99	4.04
47	RPS6KC1	2	-1.16	-5.16	3.31
48	RPS6KC1	3	0.0854	3.57	4.82
49	S100A8	1	-0.229	1.36	4
50	S100A8	2	0.424	5.95	7.63
51	S100A8	3	3.1	24.8	12.1
52	RMP24	1	1.23	11.6	7.98
53	RMP24	2	-0.645	-1.57	2.99
54	RMP24	3	0.621	7.34	4.63
55	WSB1	1	0.738	8.16	7.48
56	WSB1	2	0.534	6.73	6.85
57	WSB1	3	1.02	10.1	6.84
58	BAGE4	1	1.12	10.9	8.7
59	BAGE4	2	0.637	7.45	5.34
60	BAGE4	3	0.382	5.65	4.72
61	TLR4	1	-0.182	1.69	5.04
62	TLR4	2	0.195	4.34	6.87
63	TLR4	3	2.3	19.1	11.2
64	IRX2-DT	1	0.146	4	4.03
65	IRX2-DT	2	-0.0817	2.39	4.46
66	IRX2-DT	3	-0.837	-2.92	1.98
67	ASTL	1	-1.31	-6.24	3.38
68	ASTL	2	-0.0772	2.42	5.77
69	ASTL	3	1.05	10.4	7.78
70	PRKRIP1	1	-0.453	-0.216	4.35
71	PRKRIP1	2	-0.479	-0.402	4.13
72	PRKRIP1	3	3.16	25.2	9.27
73	CUL3	1	3.57	28.1	17.6
74	CUL3	2	0.136	3.93	5.45
75	CUL3	3	1.44	13.1	7.98
76	FRS2	1	5.05 (active)	38.5	20.1
77	FRS2	2	3.64	28.6	15.9
78	FRS2	3	-0.256	1.17	3.61
79	CPSF7	1	1.57	14	11.3
80	CPSF7	2	-0.7	-1.96	4.06
81	CPSF7	3	3.75	29.4	14.8
82	MAP3K7	1	-1.23	-5.7	3.72
83	MAP3K7	2	-0.458	-0.256	5.32
84	MAP3K7	3	-0.496	-0.523	3.84
85	WDFY4	1	-0.207	1.51	4.14
86	WDFY4	2	3.47	27.4	12.1
87	WDFY4	3	2.28	19	8.78
